Results published in PMC5356556.
These are yes or no findings as the source states them, for the method shown. Binding seen in cells or lysates may run through a third protein. Some binding calls cover weakened binding; strength is not graded here.

By UniProt entry, the sequences of proteins in these tests, tags left out. Where a name states a change or a piece, a line headed by the entry shows the natural chain unless it says otherwise. Residues count along the entry.
UniProt P04233: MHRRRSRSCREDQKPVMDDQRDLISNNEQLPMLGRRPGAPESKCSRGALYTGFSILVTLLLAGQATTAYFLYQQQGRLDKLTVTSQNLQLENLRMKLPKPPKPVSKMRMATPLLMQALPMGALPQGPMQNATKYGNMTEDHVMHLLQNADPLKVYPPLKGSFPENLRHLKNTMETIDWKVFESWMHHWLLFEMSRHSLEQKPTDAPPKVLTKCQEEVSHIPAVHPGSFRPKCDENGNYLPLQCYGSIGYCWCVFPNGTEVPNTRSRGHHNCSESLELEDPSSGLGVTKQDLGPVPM
UniProt P16070, residues 21-742: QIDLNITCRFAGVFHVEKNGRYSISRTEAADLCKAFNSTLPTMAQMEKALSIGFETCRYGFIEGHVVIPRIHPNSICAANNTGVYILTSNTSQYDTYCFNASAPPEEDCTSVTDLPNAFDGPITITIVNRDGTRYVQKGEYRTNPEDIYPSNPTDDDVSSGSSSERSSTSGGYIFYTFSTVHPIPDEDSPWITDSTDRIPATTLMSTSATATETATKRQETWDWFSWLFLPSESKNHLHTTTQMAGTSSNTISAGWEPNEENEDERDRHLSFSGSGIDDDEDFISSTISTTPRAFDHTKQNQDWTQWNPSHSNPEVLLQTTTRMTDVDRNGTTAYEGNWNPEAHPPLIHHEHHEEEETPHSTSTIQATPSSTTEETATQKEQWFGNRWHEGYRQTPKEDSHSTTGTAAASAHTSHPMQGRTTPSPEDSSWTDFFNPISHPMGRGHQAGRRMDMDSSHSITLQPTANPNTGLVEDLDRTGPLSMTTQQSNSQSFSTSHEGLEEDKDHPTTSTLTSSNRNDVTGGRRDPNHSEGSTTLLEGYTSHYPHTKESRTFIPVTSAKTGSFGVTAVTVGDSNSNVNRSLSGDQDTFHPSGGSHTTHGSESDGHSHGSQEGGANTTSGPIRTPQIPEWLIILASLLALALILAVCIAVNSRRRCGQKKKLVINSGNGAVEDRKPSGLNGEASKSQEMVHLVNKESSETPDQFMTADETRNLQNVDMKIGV

How the values were obtained:
Flag-CD74 (human) [1] = target: Flag-CD74 (human) (UniProt P04233); assay: co-IP; Flag-CD74 transfected into MDA-MB-231 cells; precipitated with anti-Flag antibody, endogenous CD44 detected
Flag-CD74 (human) [2] = target: Flag-CD74 (human) (UniProt P04233); assay: co-IP; Flag-CD74 transfected into T47D cells; precipitated with anti-Flag antibody, endogenous CD44 detected
[3] = target: CD44 (human (endogenous in MDA-MB-231 and T47D)) (UniProt P16070); assay: co-IP; lysates of MDA-MB-231 cells, endogenous proteins; precipitated with anti-CD44 antibody, CD74 detected

Row | Substance | binding (Flag-CD74 (human) [1]) | binding (Flag-CD74 (human) [2]) | binding [3]
1 | CD44 (from UniProt P16070 21-742) (receptor) | binds | binds | –
2 | CD74 (from UniProt P04233 1-296) | – | – | binds
